Holding throughout (assay): co-IP; S2 cells co-transfected with FLAG-tagged dSMN and a Myc-tagged partner (dSMN or dGem2); lysis buffer 50 mM Tris-HCl pH 7.5, 150 mM NaCl, 1 mM EDTA, 1% NP-40, 10% glycerol; immunoprecipitation with anti-FLAG agarose, western blot with anti-Myc (Fig. 3A, 3B, 6A)
(In western blotting, separated proteins are transferred to a membrane and probed.)

The target in assay [1] is T1, FLAG-tagged dSMN(Y203C) (Drosophila melanogaster) (UniProt Q9VV74).
T1 sequence: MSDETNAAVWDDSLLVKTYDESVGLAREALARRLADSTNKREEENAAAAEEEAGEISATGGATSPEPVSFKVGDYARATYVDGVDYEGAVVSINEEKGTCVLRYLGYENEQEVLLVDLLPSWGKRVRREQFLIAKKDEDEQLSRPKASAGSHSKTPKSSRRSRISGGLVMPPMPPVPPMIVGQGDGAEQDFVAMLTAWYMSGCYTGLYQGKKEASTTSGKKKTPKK

In assay [2] the target is T2, FLAG-tagged dSMN(G210V) (Drosophila melanogaster) (UniProt Q9VV74).
T2 sequence: T1 sequence with C203Y, G210V

Assay [3] addresses T3, FLAG-tagged dSMN(G206S) (Drosophila melanogaster) (UniProt Q9VV74).
T3 sequence: T1 sequence with C203Y, G206S

Assay [4] concerns the target T4, FLAG-tagged dSMN(D20V) (Drosophila melanogaster) (UniProt Q9VV74).
T4 sequence: T1 sequence with D20V, C203Y

The target of assay [5] is T5, FLAG-tagged wild-type Drosophila SMN (Flag-dSMN WT) (Drosophila melanogaster) (UniProt Q9VV74).
T5 sequence: T1 sequence with C203Y

Where a chain is given by its changes, count along the chain named. Results are given in words; binding and its absence hold for the method and conditions named. Binding seen in cells or lysates may run through a third protein. Some entries that bind do so weakly or less than the wild type. Tags and fused reporters may be left off the sequences shown.

B1: Myc-tagged wild-type Drosophila SMN (Myc-WT dSMN) (protein, UniProt Q9VV74 1-226)
chain: T1 sequence with C203Y
For the molecule B1, the binding result in assay [1], in assay [2] and in assay [3] was “binds” throughout.

B2: Myc-tagged Drosophila Gemin2 (Myc-dGem2) (protein, UniProt Q9VVX0 1-245)
chain: MQHEPEDQTFQLQALEICEPDSSFDPQKPPESGEEYLMHMFYERKRCPAVVTKRSSKIRNNTGNTTLEMLDNPELPPFKCLLPTPEWRDEQVKSFQAARSQVLVLRKELANNNYDQSGEPPLTSDQEKWKEFCRNQQPLLSTLLHLTQNDLELLLEMLSKWLQDPNTTVDLLHDVWLARWLYATLVCLHLPLEPHVFSTLRYIARTCIHLRNQLKEDEVQRAAPYNLLLTLTVQVFAQNDFKDYI
For B2, the values for the binding result in assay [4] and in assay [5] were “binds weakly” and “binds”, respectively.

For the origin of these results see PMC4140637.
